Values quoted from earlier work as cited in patent US10435371B2, “Multifunctional aminoquinoline therapeutic agent” (LOHOCLA RESEARCH CORPORATION, priority 2014, dated 2019).

Biological target: BDZ site, GABA-A Receptor
Settings: read-out: Reference Ki, GABAA/BZP (rat brain); PDSP historical reference value, [^3H]Flunitrazepam; cited from earlier work

For `CN1C(=O)CN=C(c2ccccc2)c2cc(Cl)ccc21` [Diazepam], the Ki is listed as 1.5 ± 0.08 nM.
